# Experimental data: PubChem BioAssay AID493014 (National Center for Advancing Translational Sciences (NCATS), 2011)
# The other results are listed elsewhere or left out. The main result of the screen is listed elsewhere. These columns were measured beside it and carry no call. Compounds called inactive in the main read-out are mostly missing here. Words in brackets tell the shape of the fitted curve; partial curves, single points and poor fits give uncertain potencies.
# Assay: qHTS Assay to Find Inhibitors of Chronic Active B-Cell Receptor Signaling
# Conditions: ABC-DLBCL IkBa-CBG/CBR reporter, luminescence ratio (green luciferase fused to IkBa over red control in TMD8 lymphoma cells), 4 h
# Outline: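 Doxycycline induced both beetle luciferases in TMD8 lymphoma cells; IKK-driven degradation limits the IkappaBalpha-fused green signal, while red luminescence normalises for cell number and nonspecific effects. Compounds tested up to 46 uM, 4 hrs.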
# [1] = measured here: CBR red luminescence, cell number
# [2] = measured here: IkBa-CBG green luminescence
Structure (SMILES),AC50 [1],AC50 [2]
Cc1ccc(O)c(NC(=O)CSc2n[nH]c(-c3ccccc3)n2)c1,"12.6 µM [falling, single point]",–
Fc1cccc2sc(Nc3nnc(-c4ccco4)o3)nc12,"0.92 µM [falling, full curve, poor fit]","23.1 µM [falling, single point]"
O=C(NCCC1=CCCCC1)c1cc(S(=O)(=O)N2CCOCC2)c(Cl)cc1Cl,"0.116 µM [falling, full curve, poor fit]",–
Cc1ccccc1CNC(=O)c1ccc(Cl)c([N+](=O)[O-])c1,"29.1 µM [falling, single point]",–
N#CC(C#N)=Cc1cn(-c2ncc(C(F)(F)F)cc2Cl)c2ccccc12,"23.1 µM [falling, partial curve, poor fit]",–
CCOc1ccc(OCCCCNCCN)cc1,"6.51 µM [rising, single point]",–
COc1ccc(N=C(N)SCc2ccccn2)cc1,"23.1 µM [falling, partial curve, poor fit]",–
O=C(N/N=C/c1cccc(Oc2ccccc2)c1)c1ccc(O)cc1O,"4.47 µM [falling, partial curve, poor fit]",–
CCN(CC(=O)Nc1ccc2c(c1)OCCO2)Cc1cc(=O)oc2cc(C)c(C)cc12,"0.259 µM [rising, partial curve, poor fit]","23.1 µM [falling, single point]"
COc1ccc(N2C(=O)CC(Sc3ncccc3C(=O)O)C2=O)cc1 (stereo not drawn),"32.6 µM [rising, single point]",–
O=C(Nc1ccccc1F)c1ccco1,"20.6 µM [falling, partial curve, poor fit]",–
Cc1ccc(CNC(=O)C(=O)NCC2OCCN2S(=O)(=O)c2ccc3c(c2)OCCO3)cc1 (stereo not drawn),"2.91 µM [rising, full curve, poor fit]",–
Cn1c(CSCc2ccc(F)cc2)nnc1SCC(=O)Nc1cccc(C(=O)O)c1,"17.8 µM [rising, single point]",–
Cc1ccc2cccc(SCC(=O)Nc3ccc(F)cc3)c2n1,"2.51 µM [falling, partial curve, poor fit]",–
Cc1ccc(-c2cc(-c3ccc(C)cc3O)[nH]n2)cc1,"5.01 µM [falling, partial curve]",–
COc1ccc(C(=O)NCCC2=CCCCC2)cc1[N+](=O)[O-],"28.2 µM [rising, partial curve, poor fit]",–
O=C(NCCCn1ccnc1)c1ccncc1,"11.2 µM [rising, partial curve, poor fit]",–
COc1ccc(NC(=O)CSc2c3c(nc4cc(Cl)ccc24)CCCC3)cc1OC,"11.6 µM [falling, partial curve]",–
O=C(NN=Cc1ccc(O)cc1O)c1ccccc1NS(=O)(=O)c1cccs1,"16.4 µM [falling, partial curve]",–
CC(C)(C)n1cnc2cc(NC(=O)c3cccs3)ccc21,"15.8 µM [falling, single point]",–
Cc1ccc(S(=O)(=O)N2CCN(C(=O)COC(=O)CNC(=O)c3ccccc3)CC2)c(C)c1,"9.2 µM [rising, partial curve]",–
OC(CNCC1(N2CCCCC2)CCCCC1)COc1ccc(Cl)cc1Cl (stereo not drawn),"35.5 µM [falling, single point]",–

Structure (SMILES),AC50 [1],AC50 [2]
COc1cccc(NC(=O)Nc2ccc3c(c2)nnn3C)c1,"5.17 µM [falling, full curve]",–
COc1cccc(/C=N/NC(=O)c2cccs2)c1,"11.2 µM [falling, partial curve, poor fit]",–
COc1ccc(CNC(=O)/C=C/c2ccco2)cc1OC,"35.5 µM [rising, single point]",–
CCn1cnc2sc(C(=O)Oc3cccc(C)c3)c(C)c2c1=O,"22.4 µM [rising, partial curve, poor fit]",–
CCNc1nc(NCC)nc(N/N=C/c2ccc(O)c(O)c2)n1,"35.5 µM [falling, single point]",–
Cc1ccc(C(=C2C3C=CC2C2C(=O)NC(=O)C32)c2ccc(C)cc2)cc1 (stereo not drawn),"3.26 µM [rising, partial curve, poor fit]","6.51 µM [falling, single point]"
Cc1ccc(NC(=O)Nc2ccc(Cl)cc2)c(Br)c1,"0.651 µM [rising, full curve]",–
CCN=c1scc(-c2ccc(F)cc2)n1/N=C/c1ccccn1,–,"22.4 µM [falling, single point]"
Cc1cc(C)nc(N/N=C/c2ccccc2OCc2cccc(Br)c2)n1,"20.6 µM [falling, single point]",–
COc1ccc(/C=C2\SC(=O)N(CCC(=O)N3CCN(C)CC3)C2=O)cc1,"5.62 µM [falling, partial curve]",–
CCOC(=O)C1=C(CN2CC(C)CC(C)C2)NC(=O)NC1c1ccc2c(c1)OCO2 (stereo not drawn),"35.5 µM [rising, single point]",–
O=[N+]([O-])c1ccc2oc(-c3ccccc3)nc2c1,"1.12 µM [rising, partial curve, poor fit]",–
Cc1cc2n(n1)C(c1sccc1C)Nc1ccccc1-2 (stereo not drawn),"6.31 µM [rising, single point]",–
CCCCC(=O)Nc1nc2c(OC)cc([N+](=O)[O-])cc2s1,"3.55 µM [falling, partial curve, poor fit]",–
Cc1ccc2nc(NC(=O)CCCC(=O)O)sc2c1,"0.316 µM [falling, full curve, poor fit]",–
CCc1nnc(NC(=O)c2nc(S(=O)(=O)Cc3cccc(C)c3)ncc2Cl)s1,"35.5 µM [falling, single point]",–
Cn1c(CN2CCCCC2)nc2cc(NC(=O)c3cccc(Br)c3)ccc21,"11.6 µM [falling, partial curve]",–
O=C(Nc1cccnc1)c1ccccc1-c1nc(-c2ccccc2F)no1,"13 µM [rising, partial curve, poor fit]",–
CC1=C(C)C(C)=C(C#N)C(=C(C#N)C#N)N1,"35.5 µM [falling, single point]",–
O=C(N/N=C/C(Cl)=C/c1ccccc1)c1ccco1,"12.6 µM [falling, partial curve, poor fit]",–
CCOc1ccccc1OCCCC(=O)Nc1sccc1C(N)=O,"8.2 µM [falling, partial curve]",–
COC(=O)c1ccc2c(c1)C(=O)N(C1CCCCC1)C2=O,"4.47 µM [rising, partial curve]",–

Structure (SMILES),AC50 [1],AC50 [2]
COc1cccc(/C=C/C(=O)c2cccc([N+](=O)[O-])c2)c1OC,–,"20 µM [falling, partial curve, poor fit]"
CSc1ccccc1OCc1cc(C(=O)NCc2csc(C(C)C)n2)no1,"12.6 µM [falling, single point]",–
COc1ccc(Cl)cc1NC(=S)Nc1cccnc1,"35.5 µM [rising, single point]",–
Cc1csc(NC(=O)CSc2nnc3c4ccccc4nc(C(C)(C)C)n23)n1,"3.16 µM [falling, single point]",–
Cc1ccc(CSCc2nc3ccccc3[nH]2)cc1,"7.94 µM [rising, partial curve, poor fit]",–
COCCCNC(=S)Nc1ccc(CC(=O)O)cc1,"11.6 µM [rising, partial curve, poor fit]",–
COc1ccc(Br)cc1CNC(=O)c1cc(=O)[nH]c2ccc(S(=O)(=O)N3CCCC3)cc12,"0.251 µM [rising, full curve, poor fit]",–
c1ccc(-c2ccc(-c3cnc4n3CCCCC4)cc2)cc1,"1.3 µM [rising, full curve, poor fit]",–
O=C(O)c1cccc(-c2ccc3c(c2)OCO3)c1,"22.4 µM [falling, single point]",–
Cn1cccc1/C=C1\SC(=O)N(c2ccccc2)C1=O,"1.64 µM [falling, full curve]",–
O=C(O)c1cc2nc3c(c(C(F)(F)F)n2n1)CCc1ccccc1-3,–,"15.8 µM [rising, partial curve, poor fit]"
COc1cc(/C=C(\NC(C)=O)C(=O)Nc2cccc(O)c2)ccc1OC(C)=O,"11.6 µM [rising, partial curve]",–
COC(=O)CCN1CCc2cc(N=Nc3ccc([N+](=O)[O-])cc3)ccc21,"11.2 µM [rising, partial curve, poor fit]",–
CC(CN1CCOCC1)OC(=O)c1ccccc1Br (stereo not drawn),"2.91 µM [falling, single point]",–
C=CCn1c(C)cc(C(=O)CSc2nnc(C3CC3)n2C2CC2)c1C,–,"23.1 µM [falling, partial curve, poor fit]"
Cc1cc(OCC(=O)Nc2ccc(S(=O)(=O)N3CCN(C)CC3)cc2)cc(C)c1Cl,"32.6 µM [falling, single point]",–
CC(C)CCC1(C)NC(=O)N(CC(=O)Nc2ccc3c(c2)OCCO3)C1=O (stereo not drawn),"3.26 µM [falling, partial curve, poor fit]",–
c1cc2c(cc1Oc1nc(N3CCOCC3)nc(N3CCOCC3)n1)OCO2,"1.03 µM [rising, partial curve]",–
COc1ccccc1CNC(=O)CCCOc1cc(=O)n(C)c2ccccc12,"35.5 µM [rising, partial curve, poor fit]",–
O=C(Nc1nc2ccccc2s1)C1CCCO1 (stereo not drawn),"10 µM [falling, partial curve]",–
CC12CCC(C(=O)NCc3ccc(F)cc3)(OC1=O)C2(C)C (stereo not drawn),"15.8 µM [rising, partial curve, poor fit]",–

# Entries of single compounds, quoted from the list:
# COc1cc(/C=C(\NC(C)=O)C(=O)Nc2cccc(O)c2)ccc1OC(C)=O is listed with AC50 [1]: 11.6 µM [rising, partial curve]
# c1cc2c(cc1Oc1nc(N3CCOCC3)nc(N3CCOCC3)n1)OCO2 is listed with AC50 [1]: 1.03 µM [rising, partial curve]
# O=C(O)c1cc2nc3c(c(C(F)(F)F)n2n1)CCc1ccccc1-3 is listed with AC50 [2]: 15.8 µM [rising, partial curve, poor fit]
